According to the supplement of paper PMC10849652:
The other results are listed elsewhere or left out.

Protein sequences, listed by entry. Tags and fused reporters are not part of them. Lines headed by an entry give the natural chain unless they say otherwise; changes in a name come on top.
UniProt A5PLN9: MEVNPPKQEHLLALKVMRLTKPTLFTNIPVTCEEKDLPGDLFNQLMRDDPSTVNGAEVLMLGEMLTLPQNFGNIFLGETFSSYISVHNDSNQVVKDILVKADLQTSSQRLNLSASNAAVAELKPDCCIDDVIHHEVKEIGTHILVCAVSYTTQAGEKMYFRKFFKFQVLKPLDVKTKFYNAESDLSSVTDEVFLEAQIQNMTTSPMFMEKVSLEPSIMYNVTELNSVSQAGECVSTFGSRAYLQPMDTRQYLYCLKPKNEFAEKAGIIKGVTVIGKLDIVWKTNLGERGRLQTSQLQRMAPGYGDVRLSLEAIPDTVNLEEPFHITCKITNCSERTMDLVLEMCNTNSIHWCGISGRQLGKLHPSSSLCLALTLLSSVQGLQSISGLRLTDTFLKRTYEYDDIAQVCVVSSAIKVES
UniProt Q96DX7: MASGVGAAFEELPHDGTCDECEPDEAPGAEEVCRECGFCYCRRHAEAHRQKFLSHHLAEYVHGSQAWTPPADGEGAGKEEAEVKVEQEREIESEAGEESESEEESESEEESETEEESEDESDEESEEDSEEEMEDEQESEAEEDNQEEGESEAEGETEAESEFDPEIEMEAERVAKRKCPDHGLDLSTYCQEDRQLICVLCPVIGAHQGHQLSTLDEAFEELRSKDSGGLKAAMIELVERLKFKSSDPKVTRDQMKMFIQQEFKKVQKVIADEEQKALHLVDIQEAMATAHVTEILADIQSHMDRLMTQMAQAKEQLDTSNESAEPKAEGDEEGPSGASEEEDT
UniProt Q6PID6, whole entry, looked up: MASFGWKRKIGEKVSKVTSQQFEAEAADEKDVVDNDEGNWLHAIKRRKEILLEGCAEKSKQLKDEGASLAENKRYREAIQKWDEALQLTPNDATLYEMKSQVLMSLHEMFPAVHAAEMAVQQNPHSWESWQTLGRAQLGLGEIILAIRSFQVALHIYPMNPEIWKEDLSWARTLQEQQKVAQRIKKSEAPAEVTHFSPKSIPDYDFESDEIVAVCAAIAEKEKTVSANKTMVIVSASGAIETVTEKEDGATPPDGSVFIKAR
UniProt Q9UJA5: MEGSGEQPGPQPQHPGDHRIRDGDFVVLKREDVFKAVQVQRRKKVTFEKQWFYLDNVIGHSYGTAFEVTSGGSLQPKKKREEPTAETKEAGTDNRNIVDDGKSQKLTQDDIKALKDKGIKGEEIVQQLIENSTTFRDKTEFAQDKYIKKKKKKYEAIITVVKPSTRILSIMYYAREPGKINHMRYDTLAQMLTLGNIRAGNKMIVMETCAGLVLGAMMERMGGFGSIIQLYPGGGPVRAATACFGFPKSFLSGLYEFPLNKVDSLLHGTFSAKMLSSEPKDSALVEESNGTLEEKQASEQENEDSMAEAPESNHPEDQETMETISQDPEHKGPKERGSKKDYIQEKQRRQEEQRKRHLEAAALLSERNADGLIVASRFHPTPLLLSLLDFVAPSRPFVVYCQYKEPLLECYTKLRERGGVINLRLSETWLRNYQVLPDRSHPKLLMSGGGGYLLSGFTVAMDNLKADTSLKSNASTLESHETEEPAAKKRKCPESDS
UniProt Q9Y4A5, whole entry, looked up: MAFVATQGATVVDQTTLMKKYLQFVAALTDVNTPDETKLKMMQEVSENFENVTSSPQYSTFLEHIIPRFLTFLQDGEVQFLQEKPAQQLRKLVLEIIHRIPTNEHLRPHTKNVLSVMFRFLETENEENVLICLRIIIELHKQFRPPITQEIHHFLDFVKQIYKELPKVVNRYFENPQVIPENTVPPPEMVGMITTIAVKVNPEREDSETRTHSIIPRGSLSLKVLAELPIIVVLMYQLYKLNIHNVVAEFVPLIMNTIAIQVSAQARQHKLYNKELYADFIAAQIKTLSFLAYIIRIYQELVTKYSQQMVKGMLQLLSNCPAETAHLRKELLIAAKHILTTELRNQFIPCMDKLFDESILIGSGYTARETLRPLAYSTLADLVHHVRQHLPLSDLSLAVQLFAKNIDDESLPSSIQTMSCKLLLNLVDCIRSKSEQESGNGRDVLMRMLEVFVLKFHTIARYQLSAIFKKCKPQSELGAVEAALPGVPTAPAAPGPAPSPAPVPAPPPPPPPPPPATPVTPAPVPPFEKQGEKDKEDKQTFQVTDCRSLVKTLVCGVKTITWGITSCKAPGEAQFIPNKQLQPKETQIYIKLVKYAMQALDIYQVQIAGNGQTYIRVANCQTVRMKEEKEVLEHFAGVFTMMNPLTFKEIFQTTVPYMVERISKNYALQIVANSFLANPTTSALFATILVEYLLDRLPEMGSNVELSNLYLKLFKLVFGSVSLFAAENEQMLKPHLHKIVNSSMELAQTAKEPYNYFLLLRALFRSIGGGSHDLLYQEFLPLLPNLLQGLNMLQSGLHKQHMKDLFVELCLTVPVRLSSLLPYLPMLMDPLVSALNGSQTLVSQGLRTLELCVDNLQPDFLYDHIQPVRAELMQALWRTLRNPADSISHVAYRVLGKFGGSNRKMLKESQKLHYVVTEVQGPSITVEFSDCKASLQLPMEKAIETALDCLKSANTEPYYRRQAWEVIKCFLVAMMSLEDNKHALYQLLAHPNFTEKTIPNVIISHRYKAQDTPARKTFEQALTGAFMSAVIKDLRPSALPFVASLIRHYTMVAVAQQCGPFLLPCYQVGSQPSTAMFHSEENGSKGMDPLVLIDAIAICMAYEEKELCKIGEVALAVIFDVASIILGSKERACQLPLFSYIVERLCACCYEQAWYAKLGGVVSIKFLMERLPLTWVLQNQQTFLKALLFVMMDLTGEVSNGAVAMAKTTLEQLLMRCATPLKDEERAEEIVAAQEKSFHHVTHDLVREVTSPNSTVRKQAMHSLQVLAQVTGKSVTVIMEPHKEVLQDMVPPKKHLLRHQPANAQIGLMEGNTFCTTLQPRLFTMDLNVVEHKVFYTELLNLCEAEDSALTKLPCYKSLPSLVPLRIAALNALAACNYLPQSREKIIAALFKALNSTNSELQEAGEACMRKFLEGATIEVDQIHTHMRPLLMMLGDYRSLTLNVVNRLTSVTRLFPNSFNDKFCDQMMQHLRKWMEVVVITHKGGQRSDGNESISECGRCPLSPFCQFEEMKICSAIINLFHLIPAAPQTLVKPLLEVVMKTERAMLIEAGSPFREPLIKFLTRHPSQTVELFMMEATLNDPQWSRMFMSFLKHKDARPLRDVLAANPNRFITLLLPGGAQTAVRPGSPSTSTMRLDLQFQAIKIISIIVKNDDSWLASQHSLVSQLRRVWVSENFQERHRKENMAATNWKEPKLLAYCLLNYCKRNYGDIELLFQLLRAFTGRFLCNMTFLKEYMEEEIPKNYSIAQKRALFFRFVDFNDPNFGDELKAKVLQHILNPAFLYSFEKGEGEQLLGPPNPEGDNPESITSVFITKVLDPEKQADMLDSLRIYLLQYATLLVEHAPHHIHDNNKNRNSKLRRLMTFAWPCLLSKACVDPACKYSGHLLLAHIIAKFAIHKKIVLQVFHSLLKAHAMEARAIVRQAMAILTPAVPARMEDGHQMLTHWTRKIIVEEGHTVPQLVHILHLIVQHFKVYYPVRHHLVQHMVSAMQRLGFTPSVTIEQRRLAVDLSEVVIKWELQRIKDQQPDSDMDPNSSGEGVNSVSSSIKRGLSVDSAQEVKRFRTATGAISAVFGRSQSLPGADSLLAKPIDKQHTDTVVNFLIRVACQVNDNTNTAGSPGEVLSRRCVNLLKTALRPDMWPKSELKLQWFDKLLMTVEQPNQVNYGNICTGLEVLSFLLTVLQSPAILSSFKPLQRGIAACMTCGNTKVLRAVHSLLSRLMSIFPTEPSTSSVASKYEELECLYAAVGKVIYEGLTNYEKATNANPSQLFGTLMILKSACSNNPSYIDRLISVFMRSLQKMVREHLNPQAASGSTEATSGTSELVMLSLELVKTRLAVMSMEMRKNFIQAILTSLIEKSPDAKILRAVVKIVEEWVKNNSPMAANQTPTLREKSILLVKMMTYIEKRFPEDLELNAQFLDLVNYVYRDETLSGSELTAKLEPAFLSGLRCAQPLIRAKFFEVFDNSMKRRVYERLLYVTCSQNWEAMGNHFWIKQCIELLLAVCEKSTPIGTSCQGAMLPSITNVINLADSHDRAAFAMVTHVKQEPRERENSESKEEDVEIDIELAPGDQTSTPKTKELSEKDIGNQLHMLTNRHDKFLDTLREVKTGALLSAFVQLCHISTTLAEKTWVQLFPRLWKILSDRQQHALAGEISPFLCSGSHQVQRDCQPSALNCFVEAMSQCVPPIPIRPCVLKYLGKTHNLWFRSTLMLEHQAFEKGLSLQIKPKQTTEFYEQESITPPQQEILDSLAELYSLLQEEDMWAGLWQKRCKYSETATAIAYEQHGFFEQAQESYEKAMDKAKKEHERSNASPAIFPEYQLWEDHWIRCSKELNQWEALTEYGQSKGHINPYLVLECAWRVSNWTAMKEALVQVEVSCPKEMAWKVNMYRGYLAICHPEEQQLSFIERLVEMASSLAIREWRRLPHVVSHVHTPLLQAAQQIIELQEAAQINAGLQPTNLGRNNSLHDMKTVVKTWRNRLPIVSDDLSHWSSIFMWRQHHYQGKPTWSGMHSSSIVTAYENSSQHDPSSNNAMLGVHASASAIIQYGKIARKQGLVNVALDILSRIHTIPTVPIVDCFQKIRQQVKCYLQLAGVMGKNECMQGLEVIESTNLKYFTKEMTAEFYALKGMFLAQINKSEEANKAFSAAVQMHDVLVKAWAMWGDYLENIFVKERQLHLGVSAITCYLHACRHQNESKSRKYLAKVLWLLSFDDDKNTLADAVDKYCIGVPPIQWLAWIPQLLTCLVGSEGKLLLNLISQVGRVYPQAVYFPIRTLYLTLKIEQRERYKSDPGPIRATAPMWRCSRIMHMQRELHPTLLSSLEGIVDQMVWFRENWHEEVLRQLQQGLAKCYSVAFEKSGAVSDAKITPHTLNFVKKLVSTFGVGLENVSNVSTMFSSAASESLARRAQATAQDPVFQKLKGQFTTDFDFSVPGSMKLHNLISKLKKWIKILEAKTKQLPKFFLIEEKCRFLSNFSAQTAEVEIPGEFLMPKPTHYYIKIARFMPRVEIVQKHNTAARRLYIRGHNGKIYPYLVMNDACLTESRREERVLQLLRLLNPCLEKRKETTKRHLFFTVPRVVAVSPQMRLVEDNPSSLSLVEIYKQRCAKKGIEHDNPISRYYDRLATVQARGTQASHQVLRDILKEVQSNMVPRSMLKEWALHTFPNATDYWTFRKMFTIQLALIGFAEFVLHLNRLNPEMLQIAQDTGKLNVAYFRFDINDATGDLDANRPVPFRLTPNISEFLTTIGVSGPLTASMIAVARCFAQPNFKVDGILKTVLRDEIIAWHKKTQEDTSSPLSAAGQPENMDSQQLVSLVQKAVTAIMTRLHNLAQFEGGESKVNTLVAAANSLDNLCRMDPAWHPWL
UniProt Q8TBZ6: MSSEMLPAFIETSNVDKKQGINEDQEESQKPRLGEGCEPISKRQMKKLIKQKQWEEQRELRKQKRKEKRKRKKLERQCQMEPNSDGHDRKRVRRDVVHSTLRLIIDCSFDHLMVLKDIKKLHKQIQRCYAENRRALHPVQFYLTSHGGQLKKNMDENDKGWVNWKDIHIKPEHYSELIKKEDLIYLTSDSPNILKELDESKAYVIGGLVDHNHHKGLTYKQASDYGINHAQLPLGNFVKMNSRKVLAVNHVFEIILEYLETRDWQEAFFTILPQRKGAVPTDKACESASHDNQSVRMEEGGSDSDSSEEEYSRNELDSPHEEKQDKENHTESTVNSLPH
UniProt Q96Q11: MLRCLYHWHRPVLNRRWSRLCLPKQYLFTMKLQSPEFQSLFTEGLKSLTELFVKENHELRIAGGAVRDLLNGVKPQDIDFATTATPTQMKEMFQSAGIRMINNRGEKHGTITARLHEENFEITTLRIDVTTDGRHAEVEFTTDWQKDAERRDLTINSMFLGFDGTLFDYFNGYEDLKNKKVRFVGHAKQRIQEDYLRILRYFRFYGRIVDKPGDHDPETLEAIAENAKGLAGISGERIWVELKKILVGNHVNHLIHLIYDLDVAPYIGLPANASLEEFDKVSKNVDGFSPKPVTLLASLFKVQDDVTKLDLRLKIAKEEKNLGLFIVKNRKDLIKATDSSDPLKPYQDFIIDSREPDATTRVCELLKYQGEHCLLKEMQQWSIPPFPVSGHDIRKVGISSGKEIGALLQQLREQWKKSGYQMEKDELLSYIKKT
UniProt Q15631: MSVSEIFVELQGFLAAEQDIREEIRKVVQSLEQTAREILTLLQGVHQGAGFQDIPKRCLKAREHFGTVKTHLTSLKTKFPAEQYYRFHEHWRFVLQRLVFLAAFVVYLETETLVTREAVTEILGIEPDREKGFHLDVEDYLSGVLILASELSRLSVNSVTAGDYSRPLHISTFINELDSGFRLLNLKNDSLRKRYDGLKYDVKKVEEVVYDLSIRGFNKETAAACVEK

Columns and labels:
Assay in all cases: log2 fold change, soluble protein after heating vs DMSO (PISA); higher = thermal stabilisation; K562 lysate, 10 uM; active = over 0.2 and 3.5 SD of the protein, either way, in both replicates (recomputed)
[1] = compound: Cc1cn(-c2cc(NC(=O)c3ccc(C)c(Nc4nccc(-c5cccnc5)n4)c3)cc(C(F)(F)F)c2)cn1 [nilotinib]
Outline: (§1)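 A 30 min treatment with 10 μM compound was applied to crude K562 extract at 1 mg/mL protein in PBS pH 7.4 with 1 mM MgCl2. Heating for 3 min spanned 48°C-58°C, after which aliquots were pooled, adjusted to 0.5% NP-40 at 4°C and spun at 21,000xg for 90 min. TMTpro 16plex LC-MS/MS of the supernatant, with channel sums equalised, gave values recorded as log-two fold change in thermal stability against solvent controls, from duplicates.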

[2] = compound: Cc1nc(Nc2n[nH]c3c2CN(C(=O)N[C@H](CN(C)C)c2ccccc2)C3(C)C)c2sccc2n1
Outline: as §1

[3] = compound: Cc1nc(Nc2ncc(C(=O)Nc3c(C)cccc3Cl)s2)cc(N2CCN(CCO)CC2)n1 [dasatinib]
Outline: as §1

[4] = compound: Cc1ncc(-c2ccnc(Nc3ccc(S(C)(=O)=O)cc3)n2)n1C(C)C
Outline: as §1

[5] = compound: Cn1cc(-c2ccc3c(c2)CCN3C(=O)Cc2cccc(C(F)(F)F)c2)c2c(N)ncnc21
Outline: as §1

[6] = compound: Cn1cc(CNCC2CCN(c3ncc(C(=O)NO)cn3)CC2)c2ccccc21 [quisinostat]
Outline: as §1

[7] = compound: Cn1cncc1[C@@](N)(c1ccc(Cl)cc1)c1ccc2c(c1)c(-c1cccc(Cl)c1)cc(=O)n2C [tipifarnib]
Outline: as §1

[8] = compound: NC(=O)Nc1cc(-c2cccc(F)c2)sc1C(=O)N[C@H]1CCCNC1
Outline: as §1

[9] = compound: NC(=O)c1cnc(N[C@@H]2CCCC[C@@H]2N)nc1Nc1cccc(-n2nccn2)c1
Outline: as §1

[10] = compound: NC1(c2ccc(-c3nc4ccn5c(=O)[nH]nc5c4cc3-c3ccccc3)cc2)CCC1
Outline: as §1

[11] = compound: NCC(=O)Nc1ccc(-n2nc(C(F)(F)F)cc2-c2ccc3c(ccc4ccccc43)c2)cc1
Outline: as §1

[12] = compound: O=C(CCCCCCC(=O)Nc1ccccc1)NO [vorinostat]
Outline: as §1

[13] = compound: O=C(O)c1ccc2c(c1)nc(Nc1cccc(Cl)c1)c1ccncc12 [silmitasertib]
Outline: as §1

[14] = compound: O=C1NC(=O)C(c2cnc3ccccn23)=C1c1cn2c3c(cc(F)cc13)CN(C(=O)N1CCCCC1)CC2
Outline: as §1

[15] = compound: c1cn2cc(-c3ccc4cn[nH]c4c3)nc(Nc3ccc(N4CCOCC4)cc3)c2n1 [entospletinib]
Outline: as §1

Target | log2 fold change [1] | log2 fold change [2] | log2 fold change [3] | log2 fold change [4] | log2 fold change [5] | log2 fold change [6] | log2 fold change [7] | log2 fold change [8] | log2 fold change [9] | log2 fold change [10] | log2 fold change [11] | log2 fold change [12] | log2 fold change [13] | log2 fold change [14] | log2 fold change [15]
TTC7B isoform 2 (UniProt Q86TV6) | inactive: -0.151 | inactive: 0.057 | inactive: -0.063 | inactive: 0.028 | inactive: 0.023 | inactive: -0.048 | inactive: -0.089 | inactive: 0.015 | inactive: -0.016 | inactive: -0.043 | inactive: -0.041 | inactive: -0.24 | inactive: 0.088 | inactive: 0.046 | inactive: -0.024
TRAPPC13 isoform 4 (UniProt A5PLN9) | inactive: -0.024 | inactive: 0.021 | inactive: -0.093 | inactive: -0.049 | inactive: 0.014 | inactive: -0.088 | inactive: -0.017 | inactive: 0.018 | inactive: -0.01 | inactive: 0.025 | inactive: -0.099 | inactive: -0.163 | inactive: 0.075 | inactive: -0.003 | inactive: -0.013
TTI1 (UniProt O43156) | inactive: -0.007 | inactive: 0.004 | inactive: 0.005 | inactive: 0.001 | inactive: 0.016 | inactive: -0.047 | inactive: -0.015 | inactive: -0.003 | inactive: 0.01 | inactive: -0.001 | inactive: -0.037 | active: -0.452 | inactive: 0.089 | inactive: -0.019 | inactive: -0.017
TRIM44 (UniProt Q96DX7) | inactive: -0.016 | inactive: 0.001 | inactive: 0.073 | inactive: -0.036 | inactive: -0.008 | inactive: 0.035 | inactive: 0.006 | inactive: 0.023 | inactive: -0.011 | inactive: 0.044 | inactive: 0.024 | inactive: -0.031 | inactive: 0.062 | inactive: -0.015 | inactive: -0.051
TRAPPC2 isoform 3 (UniProt P0DI81) | inactive: 0.009 | inactive: 0.033 | inactive: 0.055 | inactive: -0.048 | inactive: 0.022 | inactive: -0.13 | inactive: 0.022 | inactive: 0.017 | inactive: 0.018 | inactive: -0.001 | inactive: -0.09 | inactive: -0.051 | inactive: -0.09 | inactive: -0.061 | inactive: 0.017
TTC33 (UniProt Q6PID6) | inactive: 0.015 | inactive: -0.003 | inactive: -0.025 | inactive: 0.141 | inactive: 0.082 | inactive: -0.04 | inactive: 0.142 | inactive: 0.027 | inactive: 0.047 | inactive: 0.037 | inactive: 0.057 | inactive: -0.244 | inactive: -0.011 | inactive: 0.015 | inactive: -0.061
TRMT6 (UniProt Q9UJA5) | inactive: -0.016 | inactive: 0 | inactive: 0.033 | inactive: -0.013 | inactive: 0.011 | inactive: 0.059 | inactive: -0.007 | inactive: -0.021 | inactive: 0.008 | inactive: 0.016 | inactive: -0.019 | inactive: 0.049 | inactive: 0.015 | inactive: 0.022 | inactive: -0.015
TRRAP (UniProt Q9Y4A5) | inactive: 0.025 | inactive: -0.017 | inactive: -0.03 | inactive: 0.039 | inactive: 0.032 | inactive: -0.01 | inactive: -0.015 | inactive: 0.047 | inactive: 0.002 | inactive: -0.009 | inactive: -0.019 | inactive: -0.179 | inactive: 0.022 | inactive: 0.01 | inactive: 0.001
TTLL12 (UniProt Q14166) | inactive: 0.015 | inactive: -0.012 | inactive: -0.028 | inactive: -0.027 | inactive: -0.006 | inactive: -0.015 | inactive: 0.008 | inactive: 0.067 | inactive: 0.001 | inactive: -0.013 | inactive: -0.021 | active: -0.426 | inactive: 0.092 | inactive: 0.02 | inactive: 0.049
TRMT1 (UniProt Q9NXH9) | inactive: -0.021 | inactive: -0.002 | inactive: -0.014 | inactive: 0.021 | inactive: -0.009 | inactive: -0.002 | inactive: 0.028 | inactive: 0.005 | inactive: 0 | inactive: 0.027 | inactive: -0.044 | inactive: -0.061 | inactive: 0.034 | inactive: -0.024 | inactive: -0.028
TRMT5 (UniProt Q32P41) | inactive: 0.018 | inactive: 0.041 | inactive: -0.041 | inactive: 0 | inactive: 0.001 | inactive: -0.059 | inactive: -0.016 | inactive: 0.035 | inactive: 0.033 | inactive: -0.047 | inactive: -0.027 | inactive: -0.244 | inactive: 0.124 | inactive: -0.016 | inactive: -0.015
TRMT10A (UniProt Q8TBZ6) | inactive: 0.008 | inactive: -0.027 | inactive: -0.07 | inactive: 0.019 | inactive: 0.013 | inactive: -0.028 | inactive: 0.005 | inactive: 0.01 | inactive: 0.028 | inactive: -0.01 | inactive: 0.032 | inactive: 0.072 | inactive: -0.058 | inactive: -0.063 | inactive: -0.012
TRIM5 (UniProt Q9C035) | inactive: 0.017 | inactive: 0.227 | inactive: 0.043 | inactive: 0.009 | inactive: -0.025 | inactive: -0.052 | inactive: -0.093 | inactive: 0.054 | inactive: -0.141 | inactive: 0.036 | inactive: 0.048 | inactive: -0.23 | inactive: 0.059 | inactive: 0.001 | inactive: -0.001
TRNT1 (UniProt Q96Q11) | inactive: 0.003 | inactive: 0.01 | inactive: 0.032 | inactive: -0.023 | inactive: 0.012 | inactive: -0.009 | inactive: -0.016 | inactive: 0.013 | inactive: 0.006 | inactive: 0.008 | inactive: 0.002 | inactive: -0.132 | inactive: -0.011 | inactive: -0.007 | inactive: 0.04
TRMT12 (UniProt Q53H54) | inactive: -0.02 | inactive: -0.005 | inactive: -0.032 | inactive: 0.062 | inactive: -0.017 | inactive: -0.074 | inactive: -0.007 | inactive: 0.117 | inactive: -0.009 | inactive: 0.004 | inactive: 0.045 | active: -0.35 | inactive: -0.039 | inactive: -0.043 | inactive: -0.125
TSN (UniProt Q15631) | inactive: 0.016 | inactive: -0.009 | inactive: 0.042 | inactive: 0.012 | inactive: 0.001 | inactive: 0.012 | inactive: -0.009 | inactive: 0 | inactive: -0.01 | inactive: -0.021 | inactive: 0.056 | inactive: 0.066 | inactive: -0.051 | inactive: 0.024 | inactive: 0.008
TRAPPC9 isoform 2 (UniProt Q96Q05) | inactive: 0.034 | inactive: 0.005 | inactive: -0.051 | inactive: -0.011 | inactive: 0.068 | inactive: -0.07 | inactive: 0.026 | inactive: 0 | inactive: -0.011 | inactive: -0.073 | inactive: 0.005 | active: -0.375 | inactive: 0.046 | inactive: 0 | inactive: -0.049
TTC12 isoform 2 (UniProt Q9H892) | inactive: -0.128 | inactive: -0.073 | inactive: -0.143 | inactive: 0.018 | inactive: 0.004 | inactive: 0.033 | inactive: 0.075 | inactive: 0.007 | inactive: -0.041 | inactive: -0.073 | inactive: -0.01 | inactive: -0.163 | inactive: 0.078 | inactive: -0.058 | inactive: -0.03
TTK (UniProt P33981) | inactive: 0.007 | inactive: 0.236 | inactive: -0.014 | inactive: 0.185 | inactive: 0.013 | inactive: -0.062 | inactive: -0.147 | inactive: 0.034 | inactive: -0.001 | inactive: -0.057 | inactive: -0.009 | inactive: -0.183 | inactive: 0.004 | inactive: -0.03 | inactive: -0.039

An excerpt from above, showing only log2 fold change [14] and log2 fold change [6]:
Target	log2 fold change [14]	log2 fold change [6]
TRMT1 (UniProt Q9NXH9)	inactive: -0.024	inactive: -0.002
TRMT5 (UniProt Q32P41)	inactive: -0.016	inactive: -0.059
